Experimental data: article doi:10.1101/2023.06.14.544764

Tests used:
[1] = biological target: T1, PURA fused to eGFP (human (SupT1 cDNA or available template plasmids)) (UniProt Q00577); experiment: affinity purification with mass spectrometry
T1 sequence: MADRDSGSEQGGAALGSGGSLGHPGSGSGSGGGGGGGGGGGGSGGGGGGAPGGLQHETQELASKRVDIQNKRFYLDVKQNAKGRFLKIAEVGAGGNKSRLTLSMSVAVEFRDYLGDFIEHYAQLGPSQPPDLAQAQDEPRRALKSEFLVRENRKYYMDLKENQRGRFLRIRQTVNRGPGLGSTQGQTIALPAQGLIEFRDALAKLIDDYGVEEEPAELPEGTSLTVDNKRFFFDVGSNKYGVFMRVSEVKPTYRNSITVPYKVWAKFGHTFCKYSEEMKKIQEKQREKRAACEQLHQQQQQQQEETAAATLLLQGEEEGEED

[2] = biological target: T2, PURB fused to eGFP (human (SupT1 cDNA or available template plasmids)) (UniProt Q96QR8); experiment: affinity purification with mass spectrometry
T2 sequence: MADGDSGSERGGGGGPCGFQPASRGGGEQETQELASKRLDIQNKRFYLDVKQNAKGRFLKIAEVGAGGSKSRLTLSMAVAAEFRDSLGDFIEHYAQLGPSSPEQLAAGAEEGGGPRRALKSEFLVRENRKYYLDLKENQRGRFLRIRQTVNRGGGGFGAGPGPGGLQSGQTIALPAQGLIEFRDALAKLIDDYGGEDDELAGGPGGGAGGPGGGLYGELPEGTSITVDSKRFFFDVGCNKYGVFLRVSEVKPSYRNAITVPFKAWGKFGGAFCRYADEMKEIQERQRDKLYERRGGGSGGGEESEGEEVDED

## HIV-1 RNase H p15 (from UniProt P12497 1028-1147) (domain or fragment)
[1]
  binding: binds
[2]
  binding: binds

Results are given in words; binding and its absence hold for the method and conditions named. Binding seen in cells or lysates may run through a third protein. Here binding means that the protein was enriched with, or labelled near, the bait; the list need not be complete. Sequences can lack the tags named with a protein.
